Here are results for one substance from paper doi:10.1101/2024.09.19.613872.

Protein sequences, listed by entry. Tags and fused reporters are not part of them. Lines headed by an entry give the natural chain unless they say otherwise; changes in a name come on top.
UniProt Q96C45: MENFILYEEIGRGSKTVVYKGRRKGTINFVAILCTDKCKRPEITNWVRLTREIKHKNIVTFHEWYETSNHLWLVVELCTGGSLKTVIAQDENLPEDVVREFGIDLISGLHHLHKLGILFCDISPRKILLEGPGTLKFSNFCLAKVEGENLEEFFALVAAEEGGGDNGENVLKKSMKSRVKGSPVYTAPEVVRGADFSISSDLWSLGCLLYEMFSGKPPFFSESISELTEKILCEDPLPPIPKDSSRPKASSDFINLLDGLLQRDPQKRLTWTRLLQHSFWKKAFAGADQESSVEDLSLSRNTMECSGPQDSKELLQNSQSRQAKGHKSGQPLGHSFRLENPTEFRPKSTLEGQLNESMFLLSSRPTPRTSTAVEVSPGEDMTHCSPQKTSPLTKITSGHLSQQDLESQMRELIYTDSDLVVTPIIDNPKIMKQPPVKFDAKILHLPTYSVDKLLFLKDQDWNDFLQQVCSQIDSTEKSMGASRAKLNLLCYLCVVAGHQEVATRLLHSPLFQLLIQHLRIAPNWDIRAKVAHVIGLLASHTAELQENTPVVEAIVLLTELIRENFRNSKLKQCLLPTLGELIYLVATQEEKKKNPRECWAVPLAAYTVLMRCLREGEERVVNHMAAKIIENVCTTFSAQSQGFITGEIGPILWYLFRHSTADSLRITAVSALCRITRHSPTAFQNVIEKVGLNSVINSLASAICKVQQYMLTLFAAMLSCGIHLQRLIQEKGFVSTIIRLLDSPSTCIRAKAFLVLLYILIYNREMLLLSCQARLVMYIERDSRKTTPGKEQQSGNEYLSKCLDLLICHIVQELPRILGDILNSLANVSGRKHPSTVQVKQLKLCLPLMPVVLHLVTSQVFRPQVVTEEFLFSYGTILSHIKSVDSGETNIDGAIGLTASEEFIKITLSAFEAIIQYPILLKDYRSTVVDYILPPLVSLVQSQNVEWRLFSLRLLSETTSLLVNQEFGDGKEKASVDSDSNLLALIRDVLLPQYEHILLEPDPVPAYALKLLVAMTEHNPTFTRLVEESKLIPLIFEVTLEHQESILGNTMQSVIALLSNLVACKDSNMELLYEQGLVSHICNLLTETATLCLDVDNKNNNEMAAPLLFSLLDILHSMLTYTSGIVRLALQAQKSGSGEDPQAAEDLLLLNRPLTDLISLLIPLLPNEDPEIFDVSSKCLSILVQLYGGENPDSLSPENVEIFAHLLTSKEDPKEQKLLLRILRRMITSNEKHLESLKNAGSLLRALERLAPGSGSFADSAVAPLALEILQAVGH

The target of the assay is C-terminally HA-tagged wild type human Ulk4 (human) (UniProt Q96C45). As to the kind of experiment: co-IP; HEK293T cells transfected with Fg-tagged and HA-tagged Ulk4 constructs; immunoprecipitation and western blot with the indicated antibodies; which tag was precipitated is not given. On the technique in general: A western blot detects proteins with antibodies after separation by electrophoresis.

These are yes or no findings as the source states them, for the method shown. Binding seen in cells or lysates may run through a third protein. Some results given as binding are weak or reduced against the parent protein; the word gives no strength.

“Flag-tagged Ulk4-EE (human Ulk4 T1021E/T1023E, phospho-mimetic) (from UniProt Q96C45 1-1275)”: the binding result is recorded as “binds”.
